Drawing on PMC5048167, this text covers binding for one substance.

Chains of the proteins cited; added tags and fusions are not shown.
UniProt P9WIA1: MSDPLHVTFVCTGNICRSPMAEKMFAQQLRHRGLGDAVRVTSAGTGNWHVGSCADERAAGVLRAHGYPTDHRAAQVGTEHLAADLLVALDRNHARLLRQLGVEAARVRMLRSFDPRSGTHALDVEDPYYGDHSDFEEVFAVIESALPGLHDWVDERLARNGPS

Results are given in words; binding and its absence hold for the method and conditions named. Binding seen in cells or lysates may run through a third protein. Some results given as binding are weak or reduced against the parent protein; the word gives no strength. Where a sequence is shown, tags or fusion partners need not be part of it.

The target in this assay is T1, Myc-tagged full-length (FL) TRIM27 (UniProt P14373).
T1 sequence: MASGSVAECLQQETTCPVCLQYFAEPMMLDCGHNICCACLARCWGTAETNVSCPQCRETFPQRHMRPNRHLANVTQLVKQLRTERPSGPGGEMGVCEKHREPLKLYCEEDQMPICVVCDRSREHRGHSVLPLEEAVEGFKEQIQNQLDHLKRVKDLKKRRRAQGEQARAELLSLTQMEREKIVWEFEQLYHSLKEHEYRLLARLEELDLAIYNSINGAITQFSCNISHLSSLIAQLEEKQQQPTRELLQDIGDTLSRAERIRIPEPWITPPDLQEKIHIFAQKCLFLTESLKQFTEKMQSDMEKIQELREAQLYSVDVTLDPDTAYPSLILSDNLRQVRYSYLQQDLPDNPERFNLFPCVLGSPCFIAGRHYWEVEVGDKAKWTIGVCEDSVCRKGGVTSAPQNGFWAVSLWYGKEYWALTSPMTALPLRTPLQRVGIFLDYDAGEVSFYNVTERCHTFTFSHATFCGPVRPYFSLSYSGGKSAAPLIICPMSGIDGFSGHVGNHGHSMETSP
The experiment in a line: co-IP.

Take “Flag-tagged Mtb PtpA (from UniProt P9WIA1 1-163) (enzyme)”: the binding entry is recorded as “binds”.
